Taken from: PubChem BioAssay AID1259308 (NCATS, 2017)
Here is an unselected part of about 59,000 reagents tested. About 1,510 of them (2.6%) were called active. 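Calls use total luciferase alone and ignore viability, so some active siRNAs may act by altering cell number.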 Reagents against one gene are numbered here.

Assay: 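Genes whose loss raises luciferase production in HEK293 cells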 (primary screen)
System: human HEK293 embryonic kidney cells stably expressing firefly luciferase (HEK-CMV-Luc2-Hygro)
Reagents: single siRNA against human genes, 0.8 pmol siRNA per well
Duration: 72 h
Measurement: 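Reporter luminescence and viable-cell signal on separate replicate plates, given as percent of non-targeting control and median/MAD z-scores, plus per-cell luciferase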
Direction: total luciferase, z-score and total luciferase, % of control: higher = more reporter protein produced; luciferase per cell, z-score: higher = more reporter output per viable cell; viable cells, % of control: higher = more viable cells
Rule for the call: 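An siRNA counts as active if its total luciferase robust z-score exceeds 3; genes with two or more such siRNAs out of three were retested with fresh siRNAs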
Calls: active = raised luciferase; inactive = no rise

gene symbol	reagent	total luciferase, z-score	total luciferase, % of control	luciferase per cell, z-score	viable cells, % of control	outcome
GNL3	1	-1.15	59.1	-1.18	90.1	inactive
GNL3	2	-0.122	79.5	-0.0712	90.5	inactive
GNL3	3	-1.55	51	-1.36	81.6	inactive
SGPL1	1	0.948	101	0.859	89.8	inactive
SGPL1	2	-1.27	56.7	-1.85	103	inactive
SGPL1	3	0.962	101	-0.0338	114	inactive
CREBRF	1	-0.863	64.7	0.326	66.4	inactive
CREBRF	2	-0.641	69.1	-0.0155	77.6	inactive
CREBRF	3	0.0939	83.8	-0.0324	94.4	inactive
ASB17	1	-2.01	42	-2.14	82.5	inactive
ASB17	2	-0.762	66.7	1.19	54.5	inactive
ASB17	3	-0.265	76.6	0.294	79.2	inactive
PDCL	1	-0.298	76	-0.646	101	inactive
PDCL	2	1.24	107	1.06	90.1	inactive
PDCL	3	0.699	95.8	0.218	101	inactive
RFX6	1	0.776	97.3	0.51	95.1	inactive
RFX6	2	-0.375	74.4	-0.655	98.8	inactive
RFX6	3	-1.44	53.2	-0.862	74.6	inactive
DENND2B	1	-0.121	79.5	0.196	84.3	inactive
DENND2B	2	-0.71	67.8	0.177	72.3	inactive
DENND2B	3	-0.212	77.7	0.292	80.3	inactive
KDR	1	1.58	113	1.1	94.7	inactive
KDR	2	0.363	89.1	1.23	71.9	inactive
KDR	3	-0.147	79	-0.46	99.6	inactive
RASGEF1A	1	0.675	95.3	0.493	93.5	inactive
RASGEF1A	2	-0.634	69.3	-0.596	90.6	inactive
RASGEF1A	3	0.248	86.8	0.0518	95.7	inactive
NFIB	1	-0.798	66	-0.692	88.5	inactive
NFIB	2	0.251	86.9	-0.349	106	inactive
NFIB	3	-1.24	57.1	-0.692	76.6	inactive

Limited to “viable cells, % of control”, for 6 of the entries above:
ASB17 #1 = 82.5
ASB17 #2 = 54.5
ASB17 #3 = 79.2
PDCL #1 = 101
PDCL #2 = 90.1
PDCL #3 = 101

The list goes on:
gene symbol	reagent	total luciferase, z-score	total luciferase, % of control	luciferase per cell, z-score	viable cells, % of control	outcome
ZBTB5	1	1.29	107	0.901	94.7	inactive
ZBTB5	2	-0.675	68.5	-0.0508	77.5	inactive
ZBTB5	3	-0.607	69.8	-0.947	100	inactive
EEF1AKMT1	1	-0.0374	81.1	-0.515	104	inactive
EEF1AKMT1	2	0.283	87.5	-0.00547	97.9	inactive
EEF1AKMT1	3	0.0794	83.5	0.321	85.7	inactive
TAS2R50	1	0.21	86.1	0.385	86.9	inactive
TAS2R50	2	2.02	122	1.48	92.4	inactive
TAS2R50	3	-0.332	75.3	1.42	57.9	inactive
PEAK1	1	0.175	85.4	0.178	91	inactive
PEAK1	2	2.78	137	1.11	114	inactive
PEAK1	3	1.11	104	0.61	98.9	inactive
LCN1P2	1	-2.42	33.7	1.07	28.4	inactive
LCN1P2	2	-0.113	79.6	0.0703	87.3	inactive
LCN1P2	3	-0.837	65.2	-1.39	105	inactive
MAS1L	1	-0.52	71.5	-0.818	99.2	inactive
MAS1L	2	-0.568	70.6	-0.857	98.8	inactive
MAS1L	3	1.87	119	0.866	106	inactive
MAL	1	0.362	89.1	-0.468	113	inactive
MAL	2	0.939	101	1.08	84.6	inactive
MAL	3	0.185	85.6	0.758	78.3	inactive
FLNC	1	-0.489	72.2	-1.03	106	inactive
FLNC	2	0.501	91.8	0.767	83.9	inactive
FLNC	3	3.19	145	1.88	98.8	active
ALDH6A1	1	-0.0368	81.2	-0.472	103	inactive
ALDH6A1	2	-2.33	35.6	-1.8	63.9	inactive
ALDH6A1	3	-0.811	65.8	-0.829	91.4	inactive
MRO	1	0.101	83.9	-0.15	97.5	inactive
MRO	2	-0.669	68.6	0.14	73.8	inactive
MRO	3	1.43	110	3.29	51.8	inactive
DNASE1L2	1	1.13	104	1.44	79.8	inactive
DNASE1L2	2	-0.219	77.5	0.384	78.3	inactive
DNASE1L2	3	-0.148	78.9	-0.425	98.7	inactive
ZNF350	1	1.73	116	2.73	63.3	inactive
ZNF350	2	0.484	91.5	0.621	86.8	inactive
ZNF350	3	-0.13	79.3	-0.0754	90.4	inactive
B3GNT5	1	-1.78	46.5	-1.49	76.9	inactive
B3GNT5	2	1.08	103	0.883	91.5	inactive
B3GNT5	3	0.468	91.2	0.177	97.3	inactive
CCK	1	-0.648	69	-0.236	82.1	inactive
CCK	2	3.07	143	2.01	94.2	active
CCK	3	0.496	91.7	0.451	91	inactive
TMEM88	1	-2.3	36.2	-2.61	80.5	inactive
TMEM88	2	1.36	109	1.86	74.7	inactive
TMEM88	3	-2.27	36.8	-1.63	63.1	inactive
